Assay [1] deals with T1, mouse LSR transiently expressed on COS7 cells from pCMV5-mLSR-myc/DDK (mouse) (UniProt Q99KG5).
T1 sequence (looked up): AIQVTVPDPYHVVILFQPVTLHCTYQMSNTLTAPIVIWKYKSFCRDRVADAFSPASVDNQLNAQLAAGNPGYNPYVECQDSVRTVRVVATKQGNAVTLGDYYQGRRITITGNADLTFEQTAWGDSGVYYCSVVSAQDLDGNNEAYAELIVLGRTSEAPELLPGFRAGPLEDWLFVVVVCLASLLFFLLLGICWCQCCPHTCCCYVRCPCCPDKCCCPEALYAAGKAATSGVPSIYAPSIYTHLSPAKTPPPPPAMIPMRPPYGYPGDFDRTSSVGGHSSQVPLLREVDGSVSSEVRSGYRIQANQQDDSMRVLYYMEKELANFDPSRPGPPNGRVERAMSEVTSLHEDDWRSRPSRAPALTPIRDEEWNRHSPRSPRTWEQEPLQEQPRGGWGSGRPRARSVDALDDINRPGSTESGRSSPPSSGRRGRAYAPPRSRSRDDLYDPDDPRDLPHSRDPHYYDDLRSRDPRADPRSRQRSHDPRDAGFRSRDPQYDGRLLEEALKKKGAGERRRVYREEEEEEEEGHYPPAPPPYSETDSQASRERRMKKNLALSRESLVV
The assay can be described thus: FACS on COS7 cells transiently expressing mLSR from pCMV5-mLSR-myc/DDK, against COS7 cells only; mIgG2a as control.

For assay [2], the target named is T1, mouse LSR transiently expressed on COS7 cells from pCMV5-mLSR-myc/DDK (mouse). The assay can be described thus: FACS on COS7 cells transfected with a mouse LSR expression vector or a control vector.
The target is the same in assay [3]. Description: refers to the FACS cross-reaction experiment on COS7 cells expressing mouse LSR.
Assay [4] addresses T2, human LSR with a V5/His tag fused to the C-terminal, on the LSR-expressing cell strain (human) (UniProt Q86X29).
T2 sequence: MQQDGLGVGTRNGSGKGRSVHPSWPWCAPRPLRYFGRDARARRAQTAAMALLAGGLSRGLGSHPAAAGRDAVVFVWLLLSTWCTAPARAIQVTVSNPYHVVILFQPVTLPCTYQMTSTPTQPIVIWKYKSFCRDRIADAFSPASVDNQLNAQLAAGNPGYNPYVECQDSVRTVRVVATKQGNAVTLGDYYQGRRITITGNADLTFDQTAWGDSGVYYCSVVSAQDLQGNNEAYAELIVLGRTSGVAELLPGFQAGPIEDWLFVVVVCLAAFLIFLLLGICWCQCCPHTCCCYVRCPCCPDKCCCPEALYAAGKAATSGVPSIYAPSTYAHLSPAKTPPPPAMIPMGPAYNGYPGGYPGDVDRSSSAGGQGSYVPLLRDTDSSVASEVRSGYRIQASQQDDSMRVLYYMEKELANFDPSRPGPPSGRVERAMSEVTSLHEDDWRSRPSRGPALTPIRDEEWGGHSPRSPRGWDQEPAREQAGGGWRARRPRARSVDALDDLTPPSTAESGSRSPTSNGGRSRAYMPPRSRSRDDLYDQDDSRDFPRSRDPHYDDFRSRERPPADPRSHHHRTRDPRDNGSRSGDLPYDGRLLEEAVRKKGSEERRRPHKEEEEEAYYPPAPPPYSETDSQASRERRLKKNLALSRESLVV
The assay can be described thus: cell panning of the scFv phage library on the LSR-expressing cell strain, reactivity confirmed by FACS, positive phage clones selected. (In flow cytometry, cells or beads pass a laser one at a time.)

In assay [5] the target is T3, human LSR (lipolysis stimulated lipoprotein receptor) (human) (UniProt Q86X29).
T3 sequence: T2 sequence
The assay can be described thus: FACS on ovarian cancer cell strains (OVSAHO, JHOS2, RGM-I, OVISE).

Substitutions are numbered along the chain they refer to. Results are given in words; binding and its absence hold for the method and conditions named. Some binding calls cover weakened binding; strength is not graded here. For some assays here: Sequences can lack the tags named with a protein.

B1: anti-LSR mouse/chicken chimeric monoclonal antibody #27-6 (antibody, V domains shown)
VH: AVTLDESGGGLQMPGGALSLVCRASGFDFSSYEMQWIRQAPGKGLEWVAGISGAGSGTRYGSAVKGRATISRDNGQSTVRLQLNNLRAEDTGIYFCARSSNIDAWGHGTEVTVST
VL: ALTQPASVSANLGGTVKITCSGGGRYAESYYYGWYQQKSPGSTPVTVIYWNDKRPSNIPSRFSGSLSGSTNTLTITGVQVEDEAVYFCGSYEDSRSAFGAGTTLTV
notes: also called No. 27-6; anti-LSR antibody 27-6
Regarding B1, the binding result in assay [1] and in assay [2] was “binds” in each case.

B2: anti-LSR mouse/chicken chimeric monoclonal antibody #1-25 (antibody, V domains shown)
VH: B1 VH with M13T, R23K, I37V, A49T, A54S, G57S, I93T, F95Y, S99G, N101T
VL: ALTQPASVSANPGETVKITCSGGSSYAGSYYYGWYQQKSPGSAPVTVIYYNDQRPSDIPSRFSGSTSGSTATLTITGVQVEDEAVYICGTYEDSGGVFGAGTTLTV
notes: also called No. 1-25; anti-LSR antibody 1-25
As to B2, the binding entry in assay [3], in assay [1] and in assay [2] was “binds” throughout.

B3: SEQ ID NO 1 (scFv phage antibody clone, anti-LSR antibody 9-7 sequence) (scFv)
scFv: AVTLDESGGGLQTPGGALSLVCKASGFTFSDYQMNWVRQAPSKGLEWVAGINGRSSWTDYGAAVKGRATISRDNGQSTVRLQLNNLRAEDTATYYCARGSSIDAWGHGTEVIVSTGGGGSGGGGSGGGGSDVALTQPASVSANPGETVKITCSGGGSYYGSYYYGWYQQKSPGSAPVTMIYNNNNRPSNIPSRFSGSLSGSTNTLTITGVQADEAVYYCGSIDSNIAGVFGAGTTLTV
As for B3, the binding entry in assay [4] was “binds”.

B4: anti-LSR mouse/chicken chimeric monoclonal antibody #26-2 (antibody, V domains shown)
VH: AVTLDESGGGLQTPGGGLSLVCKGSGFTFSNYEMQWVRQAPGKGLEWVAGISGAGSTTRYGSAVQGRATISRDNGQSTVRLQLNNLRAEDTGTYYCARGSNIDGWGHGTEVIVST
VL: ALTQPSSVSANPGETVKITCSGGGRYAESYYYSWFQQKSPGSAPVTVIYWNDKRPSNIPSRFSGSLSGSTNTLTITGVRAEDEAVYYCGAYEDSSAGFGAGTTLTV
notes: also called No. 26-2; anti-LSR antibody 26-2
Regarding B4, the binding entry in assay [1] and in assay [2] was “binds” each time.

B5: anti-LSR mouse/chicken chimeric monoclonal antibody #1-43 (antibody, V domains shown)
VH: B4 VH with G17A, K23E, G24A, T28D, N31S, Y32H, T57S, N101L, G104A
VL: ALTQPASVSANPGETVKITCSGGGSYYGSYYYSWHQQKSPGSAPVTVIYENNQRPSDIPSRFSGSKSGSTATLTITGVQAEDEAVYFCGSYDSSAGLFGAGTTLTV
notes: also called No. 1-43; anti-LSR antibody 1-43
B5: the binding result in assay [1] and in assay [2] was “binds” throughout.

B6: anti-LSR mouse/chicken chimeric monoclonal antibody #9-7 (antibody, V domains shown)
VH: AVTLDESGGGLQTPGGALSLVCKASGFTFSDYQMNWVRQAPSKGLEWVAGINGRSSWTDYGAAVKGRATISRDNGQSTVRLQLNNLRAEDTATYYCARGSSIDAWGHGTEVIVST
VL: ALTQPASVSANPGETVKITCSGGGSYYGSYYYGWYQQKSPGSAPVTMIYNNNNRPSNIPSRFSGSLSGSTNTLTITGVQADEAVYYCGSIDSNIAGVFGAGTTLTV
notes: also called anti-LSR antibody 9-7
Turning to B6, the binding result in assay [1], in assay [5] and in assay [2] was “binds” in each case.

B7: SEQ ID NO 2 (scFv phage antibody clone, anti-LSR antibody 16-6 sequence) (scFv)
scFv: AVTLDESGGGLQTPGGALSLVCKASGFTFNDYGMNWVRQAPSKGLEWVAGINGRSTWTDYGAAVKGRATISRDNGQSTVRQLNNLRAEDTATYFCARGSSIDAWGHGTEVIVSTGGGGSGGGGSGGGGSDVALTQPASVSANPGETVKITCSGGGSYYGTYYFYGWYQQKAPGSAPVTLIYDNTNRPSNIPSRFSGSTSGSTSTLTITGVQVDDEAVYFCGSIDSSYSGIFGAGTTLTV
In the case of B7, in assay [4], the binding entry is on record as “binds”.

For the origin of these results see US10174111 (NATIONAL UNIVERSITY CORPORATION KOCHI UNIVERSITY, dated 2019).
